Experimental findings from PubChem BioAssay AID330 (DTP/NCI, 2004) are described below.

The list does not hold the whole screen: it is rich in T/C values a quarter to a half above the control, in often repeated tests (any T/C) and in doses without a T/C. Other doses and runs of a compound stand elsewhere. T/C is the treated group as % of the vehicle group. Some doses have a count of surviving animals in place of a T/C: the source files T/C as zero there, which appears to mark a toxic dose or a test without result, not a measured value. Some survivor counts are full or nearly so, which does not show that the dose was tolerated: survival well below the control is almost never listed, so the zero probably covers shortened survival too. Counts of survivors are from the toxicity check (mostly the fifth day) where no day follows; animals may have died later. Schedule codes are those of the source, read here as Q, the interval in days (D) or hours (H), X, the number of doses. Some entries were tested several times; their values stand side by side, smallest first. For survival time, the PubChem record calls one and a half times the control and up active, and a quarter to a half above the control has no call in these data; cut-offs in other NCI protocols can differ. Some T/C values are followed by the survivors on the day toxicity was checked, most often the fifth; without a count, all were alive then.

In the assay the test system is P388 leukemia ip, CD2F1 mice, survival T/C. The assay is described as follows: NCI In Vivo Anticancer Drug Screen. Data for tumor model P388 Leukemia (intraperitoneal) in CD2F1 (CDF1) mice. The settings on record: T/C endpoint: median survival time, higher T/C = longer survival.
Where [1] appears, read: dose: 100.0 mg/kg/injection, schedule: Q01DX005 (ip), vehicle: Klucel (hydroxypropylcellulose) (HPC).
[2] abbreviates: dose: 200.0 mg/kg/injection, schedule: Q01DX005 (ip), vehicle: Klucel (hydroxypropylcellulose) (HPC).
Where [3] appears, read: dose: 400.0 mg/kg/injection, schedule: Q04DX002 (ip), vehicle: saline.
Where [4] appears, read: dose: 200.0 mg/kg/injection, schedule: Q01DX009 (ip), vehicle: saline with Tween-80.
Setting [5] is: dose: 3.12 mg/kg/injection, schedule: Q01DX005 (ip), vehicle: Klucel (hydroxypropylcellulose) (HPC).
[6] abbreviates: dose: 12.5 mg/kg/injection, schedule: Q01DX005 (ip), vehicle: Klucel (hydroxypropylcellulose) (HPC).
[7] abbreviates: dose: 50.0 mg/kg/injection, schedule: Q01DX005 (ip), vehicle: Klucel (hydroxypropylcellulose) (HPC).

In the case of `COc1ccc2c(C)cc(N/N=C(\C)c3ccccn3)nc2c1`, the survivor count is recorded as 6 of 6 under setting [1] and 1 of 6 under setting [2].

On to `N/C(=C\c1cnc2ccccc2n1)c1ccccc1Cl`, for which the survivor count (dose: 240.0 mg/kg/injection, schedule: Q01DX005 (ip), vehicle: Klucel (hydroxypropylcellulose) (HPC)) was 6 of 6.

For `C#CC(=O)OC`, the survivor count is 0 of 6 (dose: 100.0 mg/kg/injection, schedule: Q04DX002 (ip), vehicle: saline); 0 of 6 (dose: 200.0 mg/kg/injection, schedule: Q04DX002 (ip), vehicle: saline); 0 of 6 under setting [3].

For the compound `Cc1c(N)nc(C(CC(N)=O)NCC(N)C(N)=O)nc1C(=O)NC(C(=O)NC(C)C(O)CC(=O)NC(C(=O)NC(OC1OC(C)C(N)C(O)C1O)C(O)c1nc(-c2nc(C(=O)NCCCC(N)CC(=O)NCCCNCCCCN)cs2)cs1)C(C)O)C(OC1OC(CO)C(O)C(O)C1OC1OC(CO)C(O)C(OC(N)=O)C1O)c1cnc[nH]1` (stereo not drawn), the survivor count runs as follows: (dose: 3.6 mg/kg/injection, schedule: Q01DX009 (ip), vehicle: water) 6 of 6; (dose: 4.0 mg/kg/injection, schedule: Q01DX009 (ip), vehicle: water) 6 of 6; (dose: 6.0 mg/kg/injection, schedule: Q01DX009 (ip), vehicle: water) 3 of 6 and 6 of 6; (dose: 8.0 mg/kg/injection, schedule: Q01DX009 (ip), vehicle: water) 5 of 6.

For `COc1ccc(-c2cc(-c3ccc(OC)cc3OC)[n+](C)c(-c3ccc(OC)cc3OC)c2)cc1`, the survivor count is, setting by setting: (dose: 3.12 mg/kg/injection, schedule: Q01DX009 (ip), vehicle: saline with Tween-80) 3 of 6 and 6 of 6; (dose: 6.25 mg/kg/injection, schedule: Q01DX009 (ip), vehicle: saline with Tween-80) 3 of 6; (dose: 12.5 mg/kg/injection, schedule: Q01DX009 (ip), vehicle: saline with Tween-80) 0 of 6.

Take `Cn1c(=O)[nH]c2nncnc2c1=O`: the survivor count is listed as 2 of 6 (dose: 50.0 mg/kg/injection, schedule: Q01DX009 (ip), vehicle: water) and 0 of 6 (dose: 100.0 mg/kg/injection, schedule: Q01DX009 (ip), vehicle: water).

Consider `O=c1c2ccccc2nc2ccc(Cl)nn12`, for which the survivor count under setting [4] is reported as 5 of 6.

As for `Nc1c(OS(=O)(=O)c2ccccc2)cccc1OS(=O)(=O)c1ccccc1`, the survivor count under setting [4] is 6 of 6.

`COC(=O)C(C#N)c1ccccn1` (stereo not drawn): under setting [4], the survivor count is 4 of 6.

For the compound `CCCC(=O)N(C)O`, under “dose: 400.0 mg/kg/injection, schedule: Q01DX005 (ip), vehicle: saline with Tween-80”, the T/C was 146 % of control.

Consider `CC(=O)OC1CSC(OC(C)=O)C(OC(C)=O)C1[N+](=O)[O-]` (stereo not drawn), for which, under setting [3], the survivor count is reported as 5 of 6.

Take `C[CH2][Sn]([CH2]C)([n]1c(C)nc2ccccc21)[n]1c(C)nc2ccccc21`: the T/C under setting [5] is 131 % of control; the T/C (dose: 6.25 mg/kg/injection, schedule: Q01DX005 (ip), vehicle: Klucel (hydroxypropylcellulose) (HPC)) is 128 % of control [5 of 6 alive]; the T/C under setting [6] is 128 % of control [5 of 6 alive]. Moreover, the survivor count under setting [6] is on record as 4 of 6, the survivor count under setting [7] is 0 of 6, the survivor count under setting [1] was 0 of 6 and the survivor count under setting [2] is 0 of 6.

In the case of `COc1c(OC(C)=O)c(OC(C)=O)cc2c1-c1ccc(SC)c(=O)cc1C(NC(C)=O)CC2` (stereo not drawn), the T/C was 138 % of control (dose: 1.25 mg/kg/injection, schedule: Q01DX009 (ip), vehicle: Klucel (hydroxypropylcellulose) (HPC)); 133 and 137 % of control (dose: 2.5 mg/kg/injection, schedule: Q01DX009 (ip), vehicle: Klucel (hydroxypropylcellulose) (HPC)); 149 % of control (dose: 5.0 mg/kg/injection, schedule: Q01DX009 (ip), vehicle: Klucel (hydroxypropylcellulose) (HPC)).

For the compound `Cc1cccc(C(=O)N2C(=O)Cc3ccccc32)c1`, where the note is “dose: 400.0 mg/kg/injection, schedule: Q01DX001 (ip), vehicle: Klucel (hydroxypropylcellulose) (HPC)”, the survivor count is on record as 6 of 6.

Consider `CCN(CC)CCN1C(=O)c2cccc(N)c2C1=O`, for which the survivor count (dose: 200.0 mg/kg/injection, schedule: Q01DX005 (ip), vehicle: saline) was 0 of 5.

For the compound `CNc1ccccc1C(=O)N1CCc2c([nH]c3ccccc23)C1=O`, the survivor count (dose: 50.0 mg/kg/injection, schedule: Q01DX009 (ip), vehicle: saline with Tween-80) is listed as 3 of 3.

With `CCCCCCCCCCCCCCCCOc1ccc2c(c1OCCCCCCCCCCCCCCCC)OC(C)(C)C=C2C`, the survivor count (dose: 400.0 mg/kg/injection, schedule: Q04DX002 (ip), vehicle: saline with Tween-80) was 6 of 6.

On to `CN(C)P(=O)(N(C)C)N1CCC1`, for which the survivor count (dose: 200.0 mg/kg/injection, schedule: Q01DX009 (ip), vehicle: saline) is recorded as 6 of 6.

As to `S=P(N1CCCC1)(N1CC1)N1CC1`, the T/C (dose: 5.0 mg/kg/injection, schedule: Q01DX009 (ip), vehicle: saline) is 144 % of control and the T/C (dose: 16.5 mg/kg/injection, schedule: Q04DX003 (ip), vehicle: saline with Tween-80) was 140 % of control.

`Nc1cc2c(c[n+](CCCCCCCCC[n+]3cc4c5ccccc5c(N)cc4c4ccccc43)c3ccccc23)c2ccccc12`: the T/C by setting is: (dose: 0.39 mg/kg/injection, schedule: Q04DX003 (ip), vehicle: other) 145 % of control; (dose: 0.78 mg/kg/injection, schedule: Q04DX003 (ip), vehicle: other) 148 % of control; (dose: 1.56 mg/kg/injection, schedule: Q04DX003 (ip), vehicle: other) 141 % of control; (dose: 3.13 mg/kg/injection, schedule: Q04DX003 (ip), vehicle: other) 148 % of control. Also, the survivor count (dose: 25.0 mg/kg/injection, schedule: Q04DX003 (ip), vehicle: other) was 5 of 6 and 6 of 6.

As for `CNCCCCCc1cc(-c2ccc([N+](=O)[O-])cc2)on1`, the survivor count (dose: 400.0 mg/kg/injection, schedule: Q04DX003 (ip), vehicle: saline with Tween-80) is reported as 1 of 6.

Consider `CCCCCCCOC(=O)c1ccc(O)cc1`, for which, under setting [4], the survivor count is on record as 5 of 6.

On to `CNC(=O)Oc1ccc2c(c1)[C@]1(C)CCN(C)O[C@@H]1N2C`, for which the survivor count by setting is: under setting [5], 5 of 5; under setting [6], 0 of 5; (dose: 25.0 mg/kg/injection, schedule: Q01DX005 (ip), vehicle: Klucel (hydroxypropylcellulose) (HPC)) 0 of 5; under setting [7], 0 of 5.

Consider `CC(=O)Cc1nc2ccccc2[nH]c1=O`, for which the survivor count runs as follows: (dose: 60.0 mg/kg/injection, schedule: Q01DX005 (ip), vehicle: Klucel (hydroxypropylcellulose) (HPC)) 6 of 6; (dose: 120.0 mg/kg/injection, schedule: Q01DX005 (ip), vehicle: Klucel (hydroxypropylcellulose) (HPC)) 6 of 6.

As for `Cc1ccc(NC(=O)OCCOc2ccc(-c3ccccc3)cc2)c([N+](=O)[O-])c1`, the survivor count is, setting by setting: (dose: 50.0 mg/kg/injection, schedule: Q01DX009 (ip), vehicle: DMSO) 5 of 6; (dose: 100.0 mg/kg/injection, schedule: Q01DX009 (ip), vehicle: DMSO) 5 of 6; (dose: 200.0 mg/kg/injection, schedule: Q01DX009 (ip), vehicle: DMSO) 3 of 6.
